{
  "source": "paper PMC12406253",
  "about": "“Exploration of the Neuromodulatory Properties of Fyn and GSK-3β Kinases Exploiting 7‑Azaindole-Based Inhibitors” (Journal of Medicinal Chemistry, 2025)",
  "key": {"[1]": {"system": "immortalized human brain endothelial cell line (hCMEC/D3)"}, "[2]": {"test": "in vitro", "conditions": "human"}},
  "data": [
    {"smiles": "COc1cc2c(cc1OC)C(=O)C(CC1CCN(Cc3ccccc3)CC1)C2", "note": "(centres unmarked) [Donepezil, donepezil]", "values": [
      {"measurement": "CNS (+/-)", "setting": "[1]", "result": "+"},
      {"measurement": "Papp A→B", "setting": "[2]", "result": "15.6 ± 3.1", "unit": "×10⁻⁶ cm/s"}
    ]}
  ]
}
